PubChem BioAssay AID743121, NCATS – 2013
In all, the deposit lists about 26,000 reagents; this is an unselected part. Over the whole deposit, 167 (0.63%) are marked active. 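Calls are per gene from RSA p-values that are not deposited; an individual active-marked siRNA can sensitise only weakly.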 Entries without a mark were called inactive. Further read-outs or replicates are left out here.

Aim: 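Genes whose silencing strengthens cell killing by camptothecin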 (primary screen)
Cell system: MDA-MB-231 cells, a human breast cancer line
Knock-down reagent: single siRNA against human genes, 20 nM siRNA (0.8 pmol per well)
Time to read-out: 120 h (drug added 48 h after transfection, read 72 h later)
Treatment: camptothecin 20 nM (about EC30) for 72 h; vehicle 0.1% DMSO in parallel plates
Measured: 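Cell viability by ATP luminescence (CellTiter-Glo) as % of non-targeting siRNA wells, and the log2 ratio of viability without drug over viability with camptothecin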
Direction: log2 vehicle/camptothecin viability: higher = stronger sensitisation to camptothecin; viability with camptothecin: higher = more viable cells
Units: viability with camptothecin in % of control
Hit rule: 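Active genes have an RSA gene-level p-value below 0.001, computed from the ratios of their separate siRNAs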

FGF9 [SID164364702] | log2 vehicle/camptothecin viability = -0.333; viability with camptothecin = 135
FGF9 [SID164364703] | log2 vehicle/camptothecin viability = -0.394; viability with camptothecin = 58.8
FGF9 [SID164364707] | log2 vehicle/camptothecin viability = 0.0209; viability with camptothecin = 67.2
OVCH2 [SID164658654] | log2 vehicle/camptothecin viability = 0.29; viability with camptothecin = 74.4
OVCH2 [SID164658656] | log2 vehicle/camptothecin viability = -0.441; viability with camptothecin = 111
OVCH2 [SID164658657] | log2 vehicle/camptothecin viability = -0.106; viability with camptothecin = 96.7
OVCH2 [SID164658658] | log2 vehicle/camptothecin viability = 0.29; viability with camptothecin = 29.8
GABRB2 [SID164365742] | log2 vehicle/camptothecin viability = -0.296; viability with camptothecin = 93.7
GABRB2 [SID164365744] | log2 vehicle/camptothecin viability = -0.416; viability with camptothecin = 68.4
GABRB2 [SID164365745] | log2 vehicle/camptothecin viability = -0.444; viability with camptothecin = 86
GABRB2 [SID164365747] | log2 vehicle/camptothecin viability = -0.0657; viability with camptothecin = 97.4
ALDH18A1 [SID164384249] | log2 vehicle/camptothecin viability = -0.423; viability with camptothecin = 96.6
ALDH18A1 [SID164384250] | log2 vehicle/camptothecin viability = -0.227; viability with camptothecin = 75.2
ALDH18A1 [SID164384251] | log2 vehicle/camptothecin viability = 0.216; viability with camptothecin = 88.1
ALDH18A1 [SID164384252] | log2 vehicle/camptothecin viability = -0.145; viability with camptothecin = 114
ADAM18 [SID164399635] | log2 vehicle/camptothecin viability = 0.0641; viability with camptothecin = 75.3
ADAM18 [SID164399636] | log2 vehicle/camptothecin viability = -0.062; viability with camptothecin = 90.2
ADAM18 [SID164399640] | log2 vehicle/camptothecin viability = -0.105; viability with camptothecin = 108
ADAM18 [SID164399641] | log2 vehicle/camptothecin viability = -0.227; viability with camptothecin = 88.7
VRK3 [SID164472712] | log2 vehicle/camptothecin viability = -0.37; viability with camptothecin = 105
VRK3 [SID164472713] | log2 vehicle/camptothecin viability = 0.524; viability with camptothecin = 45.9
VRK3 [SID164472714] | log2 vehicle/camptothecin viability = -0.413; viability with camptothecin = 82.8
VRK3 [SID164472718] | log2 vehicle/camptothecin viability = -0.699; viability with camptothecin = 51.9
PHPT1 [SID164465003] | log2 vehicle/camptothecin viability = 0.301; viability with camptothecin = 43.5
PHPT1 [SID164465004] | log2 vehicle/camptothecin viability = -0.0329; viability with camptothecin = 57.9
PHPT1 [SID164465006] | log2 vehicle/camptothecin viability = -0.55; viability with camptothecin = 94
PHPT1 [SID164465008] | log2 vehicle/camptothecin viability = -0.281; viability with camptothecin = 55.1
OR2D2 [SID164566050] | log2 vehicle/camptothecin viability = -0.162; viability with camptothecin = 60.8
OR2D2 [SID164566052] | log2 vehicle/camptothecin viability = 0.257; viability with camptothecin = 95.5
OR2D2 [SID164566054] | log2 vehicle/camptothecin viability = -0.0706; viability with camptothecin = 83.4
OR2D2 [SID164566055] | log2 vehicle/camptothecin viability = 0.0913; viability with camptothecin = 63.8
GPRC6A [SID164593187] | log2 vehicle/camptothecin viability = -0.25; viability with camptothecin = 74.3
GPRC6A [SID164593188] | log2 vehicle/camptothecin viability = 0.0981; viability with camptothecin = 83.3
GPRC6A [SID164593191] | log2 vehicle/camptothecin viability = -0.665; viability with camptothecin = 63.4
OPRM1 [SID164378930] | log2 vehicle/camptothecin viability = -0.242; viability with camptothecin = 21.6
OPRM1 [SID164378935] | log2 vehicle/camptothecin viability = -0.206; viability with camptothecin = 105
OPRM1 [SID164378942] | log2 vehicle/camptothecin viability = 0.117; viability with camptothecin = 54.9
OPRM1 [SID164378948] | log2 vehicle/camptothecin viability = 0.0802; viability with camptothecin = 67.6
CYTL1 [SID164478309] | log2 vehicle/camptothecin viability = -0.124; viability with camptothecin = 36.3
CYTL1 [SID164478310] | log2 vehicle/camptothecin viability = -0.11; viability with camptothecin = 103
CYTL1 [SID164478311] | log2 vehicle/camptothecin viability = 0.296; viability with camptothecin = 78.7
CYTL1 [SID164478313] | log2 vehicle/camptothecin viability = -0.176; viability with camptothecin = 81.7
SLC25A16 [SID164396097] | log2 vehicle/camptothecin viability = -0.388; viability with camptothecin = 30.1
SLC25A16 [SID164396099] | log2 vehicle/camptothecin viability = -0.489; viability with camptothecin = 60
SLC25A16 [SID164396100] | log2 vehicle/camptothecin viability = 0.306; viability with camptothecin = 30.1
SLC25A16 [SID164396102] | log2 vehicle/camptothecin viability = -0.624; viability with camptothecin = 86.8

Reformatted: results already given.
{"Gene": "ALDH18A1", "PubChem SID": "SID164384252", "log2 vehicle/camptothecin viability": -0.145, "viability with camptothecin": 114}
{"Gene": "ADAM18", "PubChem SID": "SID164399635", "log2 vehicle/camptothecin viability": 0.0641, "viability with camptothecin": 75.3}
{"Gene": "ADAM18", "PubChem SID": "SID164399636", "log2 vehicle/camptothecin viability": -0.062, "viability with camptothecin": 90.2}
{"Gene": "ADAM18", "PubChem SID": "SID164399640", "log2 vehicle/camptothecin viability": -0.105, "viability with camptothecin": 108}
{"Gene": "ADAM18", "PubChem SID": "SID164399641", "log2 vehicle/camptothecin viability": -0.227, "viability with camptothecin": 88.7}
{"Gene": "VRK3", "PubChem SID": "SID164472712", "log2 vehicle/camptothecin viability": -0.37, "viability with camptothecin": 105}
{"Gene": "VRK3", "PubChem SID": "SID164472713", "log2 vehicle/camptothecin viability": 0.524, "viability with camptothecin": 45.9}
